Test results published in the supplement of paper PMC11732987, “Enantioselective OTUD7B fragment discovery through chemoproteomics screening and high-throughput optimisation” (Communications Chemistry, 2025).
The other results are listed elsewhere or left out. The data scatter; read single values as rough.

Sequences of proteins named here, by UniProt entry; tags and fusion partners are left off. A change or cut given only in a name is not applied to a line headed by its entry. Residues count along the entry.
UniProt Q9ULH0, 35-55: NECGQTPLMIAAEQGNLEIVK
UniProt P52732: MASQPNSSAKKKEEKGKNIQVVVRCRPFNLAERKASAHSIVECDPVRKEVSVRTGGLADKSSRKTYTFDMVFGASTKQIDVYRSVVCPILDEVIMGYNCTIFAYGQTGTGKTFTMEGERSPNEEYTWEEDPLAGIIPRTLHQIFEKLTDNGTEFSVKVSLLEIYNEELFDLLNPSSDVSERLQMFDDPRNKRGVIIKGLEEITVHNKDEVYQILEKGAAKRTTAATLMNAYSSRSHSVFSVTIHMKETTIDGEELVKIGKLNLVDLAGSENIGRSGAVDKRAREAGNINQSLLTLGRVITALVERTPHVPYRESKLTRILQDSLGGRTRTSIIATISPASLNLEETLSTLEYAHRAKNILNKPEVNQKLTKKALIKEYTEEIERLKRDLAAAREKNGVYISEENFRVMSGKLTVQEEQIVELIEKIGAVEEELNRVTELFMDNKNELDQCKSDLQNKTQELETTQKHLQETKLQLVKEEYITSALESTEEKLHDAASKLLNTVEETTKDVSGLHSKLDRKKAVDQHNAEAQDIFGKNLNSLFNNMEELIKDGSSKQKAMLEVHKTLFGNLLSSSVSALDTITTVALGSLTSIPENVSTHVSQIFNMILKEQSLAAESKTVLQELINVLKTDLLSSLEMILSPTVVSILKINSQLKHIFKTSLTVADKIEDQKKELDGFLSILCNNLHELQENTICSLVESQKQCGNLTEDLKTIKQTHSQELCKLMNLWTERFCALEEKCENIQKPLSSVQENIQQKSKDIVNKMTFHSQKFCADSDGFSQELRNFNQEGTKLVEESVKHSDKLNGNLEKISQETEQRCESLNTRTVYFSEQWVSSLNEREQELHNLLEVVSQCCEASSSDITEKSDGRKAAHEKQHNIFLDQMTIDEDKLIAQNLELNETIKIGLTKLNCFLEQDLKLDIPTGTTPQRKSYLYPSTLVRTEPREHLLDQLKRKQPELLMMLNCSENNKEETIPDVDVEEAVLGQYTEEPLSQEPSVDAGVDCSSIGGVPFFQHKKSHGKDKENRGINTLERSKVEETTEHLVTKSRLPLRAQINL
UniProt Q9HCI6: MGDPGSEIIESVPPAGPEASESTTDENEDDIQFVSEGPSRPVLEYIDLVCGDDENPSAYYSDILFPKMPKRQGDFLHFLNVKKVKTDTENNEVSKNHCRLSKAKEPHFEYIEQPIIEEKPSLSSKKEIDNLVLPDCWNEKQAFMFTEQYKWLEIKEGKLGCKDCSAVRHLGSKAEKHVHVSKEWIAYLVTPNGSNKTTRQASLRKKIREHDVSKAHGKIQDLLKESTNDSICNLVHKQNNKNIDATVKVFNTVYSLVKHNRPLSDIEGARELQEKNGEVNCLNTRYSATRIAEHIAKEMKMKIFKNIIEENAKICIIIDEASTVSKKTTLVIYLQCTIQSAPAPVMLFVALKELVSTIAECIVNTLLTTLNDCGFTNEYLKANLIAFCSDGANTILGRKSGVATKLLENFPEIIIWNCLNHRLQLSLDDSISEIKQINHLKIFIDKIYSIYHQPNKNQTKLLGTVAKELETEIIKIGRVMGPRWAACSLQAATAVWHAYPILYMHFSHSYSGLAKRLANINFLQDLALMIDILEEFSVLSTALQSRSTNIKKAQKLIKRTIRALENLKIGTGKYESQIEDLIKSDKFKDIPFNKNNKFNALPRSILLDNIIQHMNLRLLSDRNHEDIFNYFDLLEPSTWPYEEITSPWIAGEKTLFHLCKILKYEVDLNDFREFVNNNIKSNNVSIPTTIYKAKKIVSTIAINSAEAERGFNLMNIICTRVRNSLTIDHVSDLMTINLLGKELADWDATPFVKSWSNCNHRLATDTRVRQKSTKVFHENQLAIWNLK
UniProt Q9Y496, whole entry, looked up: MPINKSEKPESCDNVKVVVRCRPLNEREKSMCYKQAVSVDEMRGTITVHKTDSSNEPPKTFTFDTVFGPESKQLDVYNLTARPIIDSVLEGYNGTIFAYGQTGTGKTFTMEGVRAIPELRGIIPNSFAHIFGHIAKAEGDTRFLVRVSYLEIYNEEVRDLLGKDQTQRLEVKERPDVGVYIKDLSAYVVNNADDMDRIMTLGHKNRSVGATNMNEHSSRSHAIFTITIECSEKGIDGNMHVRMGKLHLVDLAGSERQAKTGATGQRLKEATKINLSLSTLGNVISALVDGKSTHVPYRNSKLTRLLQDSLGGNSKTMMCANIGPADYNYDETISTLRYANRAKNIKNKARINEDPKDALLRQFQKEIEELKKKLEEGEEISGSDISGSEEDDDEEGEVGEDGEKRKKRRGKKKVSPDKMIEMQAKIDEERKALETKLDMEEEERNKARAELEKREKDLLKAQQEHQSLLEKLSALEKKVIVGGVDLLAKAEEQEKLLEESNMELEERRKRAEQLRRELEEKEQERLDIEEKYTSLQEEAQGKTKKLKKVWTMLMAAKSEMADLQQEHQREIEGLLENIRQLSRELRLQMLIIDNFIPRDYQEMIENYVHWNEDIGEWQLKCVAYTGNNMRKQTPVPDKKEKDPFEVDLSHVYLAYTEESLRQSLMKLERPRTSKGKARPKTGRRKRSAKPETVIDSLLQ
UniProt Q8WZA9: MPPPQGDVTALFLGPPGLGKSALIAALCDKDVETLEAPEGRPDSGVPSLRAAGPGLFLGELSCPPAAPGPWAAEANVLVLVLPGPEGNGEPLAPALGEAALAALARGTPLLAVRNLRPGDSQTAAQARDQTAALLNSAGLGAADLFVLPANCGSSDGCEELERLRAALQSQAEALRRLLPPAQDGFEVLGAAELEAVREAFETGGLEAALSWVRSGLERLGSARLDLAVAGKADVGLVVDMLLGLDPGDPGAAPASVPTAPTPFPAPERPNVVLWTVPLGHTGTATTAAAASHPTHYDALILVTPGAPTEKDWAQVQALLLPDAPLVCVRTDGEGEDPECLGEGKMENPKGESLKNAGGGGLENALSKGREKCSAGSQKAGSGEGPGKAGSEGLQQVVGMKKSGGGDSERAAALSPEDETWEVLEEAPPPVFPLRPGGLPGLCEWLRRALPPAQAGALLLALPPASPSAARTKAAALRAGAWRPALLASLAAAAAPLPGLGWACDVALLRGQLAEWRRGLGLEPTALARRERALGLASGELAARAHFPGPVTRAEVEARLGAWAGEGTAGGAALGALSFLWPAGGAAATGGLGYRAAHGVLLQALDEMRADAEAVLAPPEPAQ
UniProt P23458: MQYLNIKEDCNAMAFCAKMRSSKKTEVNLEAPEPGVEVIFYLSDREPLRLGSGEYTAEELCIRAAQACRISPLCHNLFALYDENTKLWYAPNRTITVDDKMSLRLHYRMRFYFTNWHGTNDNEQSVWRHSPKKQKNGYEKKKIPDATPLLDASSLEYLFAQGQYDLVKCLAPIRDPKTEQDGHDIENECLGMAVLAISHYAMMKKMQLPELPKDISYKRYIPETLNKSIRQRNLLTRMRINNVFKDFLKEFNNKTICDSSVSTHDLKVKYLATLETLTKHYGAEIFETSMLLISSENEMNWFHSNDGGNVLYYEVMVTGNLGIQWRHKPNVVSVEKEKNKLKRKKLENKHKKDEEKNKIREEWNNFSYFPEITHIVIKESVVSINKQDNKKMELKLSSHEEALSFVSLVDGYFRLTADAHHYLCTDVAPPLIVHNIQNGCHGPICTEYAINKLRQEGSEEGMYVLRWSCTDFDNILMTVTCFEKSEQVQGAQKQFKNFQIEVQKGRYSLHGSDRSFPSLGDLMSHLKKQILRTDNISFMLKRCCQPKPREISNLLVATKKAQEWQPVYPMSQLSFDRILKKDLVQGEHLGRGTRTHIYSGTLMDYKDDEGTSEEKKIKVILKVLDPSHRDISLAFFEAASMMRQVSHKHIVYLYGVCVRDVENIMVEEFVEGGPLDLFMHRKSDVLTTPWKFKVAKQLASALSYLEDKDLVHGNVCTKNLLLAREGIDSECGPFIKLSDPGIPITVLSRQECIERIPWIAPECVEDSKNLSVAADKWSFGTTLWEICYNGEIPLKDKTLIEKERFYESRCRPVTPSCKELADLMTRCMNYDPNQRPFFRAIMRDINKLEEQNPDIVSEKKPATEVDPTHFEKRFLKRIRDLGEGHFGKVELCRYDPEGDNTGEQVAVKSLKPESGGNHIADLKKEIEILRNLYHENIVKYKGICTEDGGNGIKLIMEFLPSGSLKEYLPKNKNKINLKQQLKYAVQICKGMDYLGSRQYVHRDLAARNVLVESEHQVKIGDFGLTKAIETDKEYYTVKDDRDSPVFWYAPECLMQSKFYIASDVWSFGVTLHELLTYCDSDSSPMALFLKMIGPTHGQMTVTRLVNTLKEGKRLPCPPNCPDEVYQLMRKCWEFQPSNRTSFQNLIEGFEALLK
UniProt Q96AB3: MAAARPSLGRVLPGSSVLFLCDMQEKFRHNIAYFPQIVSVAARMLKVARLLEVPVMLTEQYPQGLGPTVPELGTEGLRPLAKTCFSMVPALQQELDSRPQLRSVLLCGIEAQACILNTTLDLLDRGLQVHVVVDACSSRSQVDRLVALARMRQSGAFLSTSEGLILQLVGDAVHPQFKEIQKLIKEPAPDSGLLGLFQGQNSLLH
UniProt Q9BW62, 78-108: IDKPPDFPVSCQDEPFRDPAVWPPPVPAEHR
UniProt Q9NQT8: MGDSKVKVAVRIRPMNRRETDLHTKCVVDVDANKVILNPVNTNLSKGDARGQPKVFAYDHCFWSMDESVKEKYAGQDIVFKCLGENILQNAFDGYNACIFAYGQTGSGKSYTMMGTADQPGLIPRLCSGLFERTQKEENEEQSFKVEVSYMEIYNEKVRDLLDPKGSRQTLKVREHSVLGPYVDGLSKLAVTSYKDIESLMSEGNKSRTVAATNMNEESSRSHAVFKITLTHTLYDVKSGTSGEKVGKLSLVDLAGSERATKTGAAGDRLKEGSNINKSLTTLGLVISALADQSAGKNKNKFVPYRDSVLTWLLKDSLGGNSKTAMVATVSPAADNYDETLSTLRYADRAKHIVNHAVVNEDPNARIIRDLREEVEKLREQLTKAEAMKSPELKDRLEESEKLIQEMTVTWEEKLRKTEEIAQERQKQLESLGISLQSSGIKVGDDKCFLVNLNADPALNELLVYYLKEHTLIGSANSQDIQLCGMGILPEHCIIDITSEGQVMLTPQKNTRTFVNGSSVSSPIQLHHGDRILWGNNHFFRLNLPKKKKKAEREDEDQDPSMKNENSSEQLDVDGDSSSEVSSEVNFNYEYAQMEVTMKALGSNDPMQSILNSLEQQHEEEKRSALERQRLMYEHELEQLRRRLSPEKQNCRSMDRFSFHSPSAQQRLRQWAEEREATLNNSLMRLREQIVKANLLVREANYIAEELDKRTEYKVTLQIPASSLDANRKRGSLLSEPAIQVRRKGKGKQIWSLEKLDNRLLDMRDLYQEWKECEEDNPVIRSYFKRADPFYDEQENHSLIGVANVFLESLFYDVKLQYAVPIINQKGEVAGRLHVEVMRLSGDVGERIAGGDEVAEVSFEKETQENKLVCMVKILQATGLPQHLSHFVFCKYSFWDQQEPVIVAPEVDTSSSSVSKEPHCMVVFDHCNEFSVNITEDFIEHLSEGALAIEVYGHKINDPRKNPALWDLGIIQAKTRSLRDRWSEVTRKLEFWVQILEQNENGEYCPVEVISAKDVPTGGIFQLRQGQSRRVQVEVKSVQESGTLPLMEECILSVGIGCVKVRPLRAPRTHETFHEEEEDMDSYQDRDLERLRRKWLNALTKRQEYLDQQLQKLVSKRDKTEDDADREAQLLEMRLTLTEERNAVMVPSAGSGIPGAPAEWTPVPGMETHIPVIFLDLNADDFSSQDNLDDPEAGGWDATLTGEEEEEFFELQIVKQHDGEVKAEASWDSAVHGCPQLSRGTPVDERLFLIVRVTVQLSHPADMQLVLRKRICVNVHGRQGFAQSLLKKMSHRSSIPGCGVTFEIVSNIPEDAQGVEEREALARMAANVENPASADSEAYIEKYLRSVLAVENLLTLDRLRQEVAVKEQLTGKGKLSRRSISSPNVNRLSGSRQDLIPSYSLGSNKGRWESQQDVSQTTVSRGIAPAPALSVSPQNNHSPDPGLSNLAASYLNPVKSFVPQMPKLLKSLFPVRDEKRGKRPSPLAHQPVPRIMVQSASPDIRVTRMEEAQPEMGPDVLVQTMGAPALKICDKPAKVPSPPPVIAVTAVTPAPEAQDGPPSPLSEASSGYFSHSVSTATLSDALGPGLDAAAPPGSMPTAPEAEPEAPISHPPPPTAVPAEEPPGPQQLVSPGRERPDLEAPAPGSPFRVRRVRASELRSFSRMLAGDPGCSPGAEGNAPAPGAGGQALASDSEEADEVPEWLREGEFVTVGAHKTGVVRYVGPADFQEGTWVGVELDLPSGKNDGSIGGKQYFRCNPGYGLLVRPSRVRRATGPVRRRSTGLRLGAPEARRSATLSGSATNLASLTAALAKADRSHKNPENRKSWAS
UniProt Q92993, 190-211: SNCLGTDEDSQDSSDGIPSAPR

What was measured:
[1] = compound: ClCC(=O)N[C@@H]1CCCc2ccccc12; assay: log2 mean competition ratio of IA-DTB cysteine labelling (DMSO/compound) (log2 ratio); higher = stronger cysteine engagement by compound; conditions: treatment time: 4 h, cell line lysate: HEK293T
Method: (§1)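 IA-DTB competitive cysteine chemoproteomics in HEK293T RIPA lysate. Lysates were treated with compound 29 or 30 at 50 or 200 µM for 4 h, then IA-DTB (500 µM, 1 h), trypsin-digested, NeutrAvidin-enriched and analysed by diaPASEF. Competition ratio = intensity DMSO / intensity compound (n=4 treated, n=64 DMSO); binding: mean log2 CR ≥ 1 and p ≤ 0.05 plus QC filters. Target is the cysteine site.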

[2] = compound: ClCC(=O)N[C@H]1CCCc2ccccc12; assay: as above; conditions: treatment time: 4 h, cell line lysate: HEK293T
Method: as §1

Target	log2 mean competition ratio ([1]; 50 µM)	log2 mean competition ratio ([1]; 200 µM)	log2 mean competition ratio ([2]; 50 µM)	log2 mean competition ratio ([2]; 200 µM)
KIAA0232 C1077	-0.0364	0.438	-0.719	0.149
KIDINS220 C37 (UniProt Q9ULH0)	-0.189	-0.174	-0.437	-0.481
KIF1B C1771 (UniProt O60333)	0.0789	0.0907	-0.0389	0.202
KCTD5 C25 (UniProt Q9NXV2)	0.2	0.0692	0.0316	0.0773
KDM3B C569 (UniProt Q7LBC6)	0.237	0.459	0.236	0.582
ITPR2 C1649 (UniProt Q14571)	-0.137	0.126	-0.0992	0.139
KDM2A C443 (UniProt Q9Y2K7)	0.0329	0.335	0.0329	0.196
KDM5C C129 (UniProt P41229)	-0.325	-0.113	-0.158	-0.15
KIF1A C1645	-0.14	0.0561	-0.176	0.0436
KCTD20 C327 (UniProt Q7Z5Y7)	–	-0.0689	-0.318	-0.0969
KIF17 C872	-0.00356	0.0204	0.477	0.341
KIF11 C723 (UniProt P52732)	-0.21	0.0194	0.00907	0.0125
KIDINS220 C1250 (UniProt Q9ULH0)	-0.0214	-0.0913	-0.379	-0.185
KIF11 C740 (UniProt P52732)	-0.35	-0.169	-0.584	0.0521
KIAA1586 C281 (UniProt Q9HCI6)	-0.259	-0.0325	0.0221	0.387
IRF3 C371 (UniProt Q14653)	-0.207	0.086	0.164	0.127
KIF16B C242 (UniProt Q96L93)	-0.394	-0.543	-0.196	-0.0644
KIF3A C12 (UniProt Q9Y496)	-0.189	0.0185	-0.328	-0.0569
IRGQ C340 (UniProt Q8WZA9)	-0.0905	-0.0772	0.209	0.174
KIAA1109 C626 (UniProt Q2LD37)	-0.0421	0.072	-0.478	0.124
KIAA1217 C726 (UniProt Q5T5P2)	0.182	0.204	-0.0279	0.294
ITPR3 C36 (UniProt Q14573)	0.29	-0.236	-0.331	-0.08
KHSRP C436	0.412	-0.0491	0.771	0.0976

Target	log2 mean competition ratio ([1]; 50 µM)	log2 mean competition ratio ([1]; 200 µM)	log2 mean competition ratio ([2]; 50 µM)	log2 mean competition ratio ([2]; 200 µM)
ITPR2 C253 (UniProt Q14571)	0.0128	0.143	0.101	-0.124
KEAP1 C288 (UniProt Q14145)	-0.0331	0.313	-0.132	0.376
JAK1 C763 (UniProt P23458)	0.216	-0.157	0.112	0.128
ITPRID2 C305 (UniProt P28290)	-0.0933	-0.108	0.0527	0.0851
ISOC2 C136 (UniProt Q96AB3)	0.658	1.24	0.478	0.887
KDM3B C295 (UniProt Q7LBC6)	-0.267	0.142	0.000135	0.152
KCTD5 C28 (UniProt Q9NXV2)	0.497	-0.257	0.378	-0.116
KATNAL1 C88 (UniProt Q9BW62)	-0.104	0.365	-0.102	0.0659
JCAD C904	0.0515	0.0865	0.301	0.337
KIF14 C47 (UniProt Q15058)	–	-0.522	–	-0.00573
KIF3A C621 (UniProt Q9Y496)	0.275	-0.00151	0.026	0.0139
KIF1A C609	0.0365	-0.0822	0.223	-0.0596
KDM3A C304 (UniProt Q9Y4C1)	0.0275	0.0518	0.489	0.107
KIF21B C203 (UniProt O75037)	-0.341	0.601	-0.936	0.229
ITPRID2 C673 (UniProt P28290)	0.0114	-0.421	0.225	-0.0966
KIF2C C287 (UniProt Q99661)	0.0355	-0.123	0.146	0.0282
KCTD3 C541 (UniProt Q9Y597)	0.0137	0.355	0.16	0.455
ITPKB C267 (UniProt P27987)	0.144	0.234	-0.195	-0.568
KIF13B C26 (UniProt Q9NQT8)	-0.0518	-0.115	-0.298	-0.166
KIF2C C40 (UniProt Q99661)	-0.0576	-0.161	0.292	-0.128
IRS4 C4	0.0976	0.196	0.332	0.168
KAT5 C192 (UniProt Q92993)	-0.358	0.248	0.256	-0.1

Only log2 mean competition ratio ([2]; 200 µM), log2 mean competition ratio ([2]; 50 µM) and log2 mean competition ratio ([1]; 50 µM), for some of the entries so far:
Target	log2 mean competition ratio ([2]; 200 µM)	log2 mean competition ratio ([2]; 50 µM)	log2 mean competition ratio ([1]; 50 µM)
KIAA1217 C726 (UniProt Q5T5P2)	0.294	-0.0279	0.182
ITPR3 C36 (UniProt Q14573)	-0.08	-0.331	0.29
